Values of other authors as cited in patent publication US20250268834A1, “IONIC LIQUID SALTS OF ACTIVE PHARMACEUTICAL INGREDIENTS” (GlaxoSmithKline Consumer Healthcare Holdings (US) LLC, priority 2021, published 2025).
Like-named read-outs stand apart in the source and are kept apart here.

Compound: CC(=O)Nc1ccc(O)cc1 [APAP, acetaminophen]
- solubility (37° C. in water, across pH range ~1-9): approximately 20 mg/ml
- solubility (80% PEG 400/water mixture): up to 260 mg/ml
